From publication PMC6465247 come the findings set out here.

These are yes or no findings as the source states them, for the method shown. For part of these data: In cells and extracts the contact can be indirect. Some binding calls cover weakened binding; strength is not graded here. Where a sequence is shown, tags or fusion partners need not be part of it.

The target of experiment [1] is T1, REC8, yeast two-hybrid fusion (Arabidopsis thaliana) (UniProt Q9S7T7).
T1 sequence: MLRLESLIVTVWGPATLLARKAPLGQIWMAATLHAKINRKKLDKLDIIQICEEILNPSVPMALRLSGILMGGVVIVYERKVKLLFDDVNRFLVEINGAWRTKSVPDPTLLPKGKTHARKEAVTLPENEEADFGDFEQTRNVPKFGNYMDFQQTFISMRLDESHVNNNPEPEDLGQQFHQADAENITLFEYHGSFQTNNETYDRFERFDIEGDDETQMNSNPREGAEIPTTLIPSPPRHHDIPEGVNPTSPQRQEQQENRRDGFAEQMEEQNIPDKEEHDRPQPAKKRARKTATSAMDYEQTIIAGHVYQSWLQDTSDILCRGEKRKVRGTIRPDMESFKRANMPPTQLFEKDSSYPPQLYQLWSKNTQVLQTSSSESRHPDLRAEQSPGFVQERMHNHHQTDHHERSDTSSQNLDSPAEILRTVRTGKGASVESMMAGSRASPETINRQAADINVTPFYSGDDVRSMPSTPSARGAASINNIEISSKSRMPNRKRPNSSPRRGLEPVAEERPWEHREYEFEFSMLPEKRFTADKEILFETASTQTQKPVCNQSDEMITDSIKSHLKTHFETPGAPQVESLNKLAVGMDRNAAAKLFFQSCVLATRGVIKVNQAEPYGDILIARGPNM
Kind of experiment: two-hybrid; Matchmaker Gold system (Clontech), pGADT7-GW and pGBKT7-GW fusions co-transformed into yeast AH109; growth on SD/-Leu -Trp -His.

The target of experiment [2] is T2, PDS5D, BiFC fusion (Arabidopsis thaliana) (UniProt A8MRD9).
T2 sequence: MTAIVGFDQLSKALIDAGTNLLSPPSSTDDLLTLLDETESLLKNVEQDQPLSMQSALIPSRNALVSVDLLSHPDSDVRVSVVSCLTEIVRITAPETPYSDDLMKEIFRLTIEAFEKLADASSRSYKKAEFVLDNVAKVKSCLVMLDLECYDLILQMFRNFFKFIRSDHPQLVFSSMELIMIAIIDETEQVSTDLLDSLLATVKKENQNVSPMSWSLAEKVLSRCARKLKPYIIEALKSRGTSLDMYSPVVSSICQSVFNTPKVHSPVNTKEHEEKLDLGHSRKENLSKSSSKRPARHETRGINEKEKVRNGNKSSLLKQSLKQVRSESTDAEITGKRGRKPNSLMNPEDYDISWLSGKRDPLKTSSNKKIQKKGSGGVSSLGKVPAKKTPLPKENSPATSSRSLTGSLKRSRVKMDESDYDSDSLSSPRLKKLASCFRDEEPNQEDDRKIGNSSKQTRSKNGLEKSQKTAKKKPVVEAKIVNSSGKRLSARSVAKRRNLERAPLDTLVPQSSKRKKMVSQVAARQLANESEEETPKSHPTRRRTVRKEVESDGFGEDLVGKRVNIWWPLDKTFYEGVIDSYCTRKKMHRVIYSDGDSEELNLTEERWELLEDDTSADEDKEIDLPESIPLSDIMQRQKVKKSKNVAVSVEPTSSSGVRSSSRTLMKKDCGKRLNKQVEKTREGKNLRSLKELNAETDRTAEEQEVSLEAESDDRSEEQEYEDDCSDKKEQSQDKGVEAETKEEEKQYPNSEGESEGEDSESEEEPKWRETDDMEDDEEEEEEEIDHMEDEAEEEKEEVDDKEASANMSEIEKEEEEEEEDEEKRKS
Kind of experiment: split reporter; BiFC and ratiometric BiFC (pBiFC-2in1-NN, YFP against RFP as reference) in tobacco leaves after Agrobacterium infiltration; imaged 2 days after infiltration.

In experiment [3] the target is T3, PDS5E, BiFC fusion (Arabidopsis thaliana) (UniProt Q9S9P0).
T3 sequence: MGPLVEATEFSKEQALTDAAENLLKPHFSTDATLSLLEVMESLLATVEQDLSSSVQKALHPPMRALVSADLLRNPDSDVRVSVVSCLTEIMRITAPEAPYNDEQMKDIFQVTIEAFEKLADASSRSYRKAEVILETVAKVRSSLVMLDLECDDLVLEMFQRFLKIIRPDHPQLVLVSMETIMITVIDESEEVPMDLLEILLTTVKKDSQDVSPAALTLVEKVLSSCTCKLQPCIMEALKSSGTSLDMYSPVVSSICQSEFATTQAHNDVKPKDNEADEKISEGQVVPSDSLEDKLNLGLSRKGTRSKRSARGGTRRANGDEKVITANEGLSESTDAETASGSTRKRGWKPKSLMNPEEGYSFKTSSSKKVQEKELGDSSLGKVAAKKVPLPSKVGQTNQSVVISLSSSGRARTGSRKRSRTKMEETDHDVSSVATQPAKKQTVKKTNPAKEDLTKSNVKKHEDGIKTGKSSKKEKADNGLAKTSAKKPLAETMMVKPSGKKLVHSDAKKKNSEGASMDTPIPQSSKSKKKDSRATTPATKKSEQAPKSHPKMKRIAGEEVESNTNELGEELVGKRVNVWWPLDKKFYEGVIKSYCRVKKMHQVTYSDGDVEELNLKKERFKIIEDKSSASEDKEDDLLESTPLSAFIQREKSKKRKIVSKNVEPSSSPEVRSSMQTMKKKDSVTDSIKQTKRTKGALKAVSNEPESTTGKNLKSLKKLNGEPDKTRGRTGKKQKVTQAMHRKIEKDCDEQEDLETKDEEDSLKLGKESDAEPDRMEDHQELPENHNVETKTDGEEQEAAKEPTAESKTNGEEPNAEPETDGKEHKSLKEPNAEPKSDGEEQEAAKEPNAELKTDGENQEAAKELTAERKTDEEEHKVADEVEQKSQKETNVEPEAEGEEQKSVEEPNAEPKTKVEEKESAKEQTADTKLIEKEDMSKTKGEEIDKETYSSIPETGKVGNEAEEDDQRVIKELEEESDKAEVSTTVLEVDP
The experiment is described as above.

B1: SWITCH 1/DYAD (SWI1), yeast two-hybrid fusion (protein, UniProt Q9FGN8 1-639)
chain: MSSTMFVKRNPIRETTAGKISSPSSPTLNVAVAHIRAGSYYEIDASILPQRSPENLKSIRVVMVSKITASDVSLRYPSMFSLRSHFDYSRMNRNKPMKKRSGGGLLPVFDESHVMASELAGDLLYRRIAPHELSMNRNSWGFWVSSSSRRNKFPRREVVSQPAYNTRLCRAASPEGKCSSELKSGGMIKWGRRLRVQYQSRHIDTRKNKEGEESSRVKDEVYKEEEMEKEEDDDDGNEIGGTKQEAKEITNGNRKRKLIESSTERLAQKAKVYDQKKETQIVVYKRKSERKFIDRWSVERYKLAERNMLKVMKEKNAVFGNSILRPELRSEARKLIGDTGLLDHLLKHMAGKVAPGGQDRFMRKHNADGAMEYWLESSDLIHIRKEAGVKDPYWTPPPGWKLGDNPSQDPVCAGEIRDIREELASLKRELKKLASKKEEEELVIMTTPNSCVTSQNDNLMTPAKEIYADLLKKKYKIEDQLVIIGETLRKMEEDMGWLKKTVDENYPKKPDSTETPLLLEDSPPIQTLEGEVKVVNKGNQITESPQNREKGRKHDQQERSPLSLISNTGFRICRPVGMFAWPQLPALAAATDTNASSPSHRQAYPSPFPVKPLAAKRPLGLTFPFTIIPEEAPKNLFNV
In the case of B1, the binding entry in experiment [1] was “no binding”.

B2: SWI1, BiFC fusion (protein, UniProt Q9FGN8 1-639)
chain: B1 chain
Take B2: the binding entry in experiment [2] was “binds weakly”; in experiment [3], “binds”.
